No constants are given. Whether binding was seen depends on the method and setting. In cells and extracts the contact can be indirect. Some results given as binding are weak or reduced against the parent protein; the word gives no strength.
How the values were obtained:
[1] = target: T1, Tripartite-motif protein-56 (TRIM56), endogenous (human (endogenous in HeLa)) (UniProt Q9BRZ2); experiment: condition: only later than 2 h after poly-I:C stimulation; co-IP; endogenous proteins in HeLa cells, time points later than 2 h after poly-I:C stimulation; lysates precipitated with anti-TRIM56 pAb, blotted with anti-TRIF
T1 sequence: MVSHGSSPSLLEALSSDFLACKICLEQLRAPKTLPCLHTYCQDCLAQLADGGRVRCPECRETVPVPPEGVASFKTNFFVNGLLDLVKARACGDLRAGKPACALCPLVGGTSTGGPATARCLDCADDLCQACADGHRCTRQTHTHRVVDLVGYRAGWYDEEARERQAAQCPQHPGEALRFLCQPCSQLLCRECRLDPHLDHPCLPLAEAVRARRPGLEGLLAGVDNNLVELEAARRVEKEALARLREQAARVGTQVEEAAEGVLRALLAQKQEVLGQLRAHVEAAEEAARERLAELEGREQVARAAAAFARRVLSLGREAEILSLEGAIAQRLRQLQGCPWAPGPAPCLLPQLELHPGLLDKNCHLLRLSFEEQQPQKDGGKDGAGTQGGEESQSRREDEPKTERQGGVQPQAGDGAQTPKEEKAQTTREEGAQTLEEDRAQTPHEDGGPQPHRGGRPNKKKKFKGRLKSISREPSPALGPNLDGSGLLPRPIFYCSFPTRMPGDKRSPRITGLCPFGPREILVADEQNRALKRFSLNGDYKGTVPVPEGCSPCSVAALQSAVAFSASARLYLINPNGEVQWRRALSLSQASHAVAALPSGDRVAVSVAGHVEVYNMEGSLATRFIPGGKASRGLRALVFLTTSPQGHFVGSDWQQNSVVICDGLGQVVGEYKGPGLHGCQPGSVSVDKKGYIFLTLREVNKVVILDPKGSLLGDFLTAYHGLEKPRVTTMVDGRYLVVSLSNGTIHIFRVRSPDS

Sequences of proteins named here, by UniProt entry; tags and fusion partners are left off.
UniProt Q8IUC6: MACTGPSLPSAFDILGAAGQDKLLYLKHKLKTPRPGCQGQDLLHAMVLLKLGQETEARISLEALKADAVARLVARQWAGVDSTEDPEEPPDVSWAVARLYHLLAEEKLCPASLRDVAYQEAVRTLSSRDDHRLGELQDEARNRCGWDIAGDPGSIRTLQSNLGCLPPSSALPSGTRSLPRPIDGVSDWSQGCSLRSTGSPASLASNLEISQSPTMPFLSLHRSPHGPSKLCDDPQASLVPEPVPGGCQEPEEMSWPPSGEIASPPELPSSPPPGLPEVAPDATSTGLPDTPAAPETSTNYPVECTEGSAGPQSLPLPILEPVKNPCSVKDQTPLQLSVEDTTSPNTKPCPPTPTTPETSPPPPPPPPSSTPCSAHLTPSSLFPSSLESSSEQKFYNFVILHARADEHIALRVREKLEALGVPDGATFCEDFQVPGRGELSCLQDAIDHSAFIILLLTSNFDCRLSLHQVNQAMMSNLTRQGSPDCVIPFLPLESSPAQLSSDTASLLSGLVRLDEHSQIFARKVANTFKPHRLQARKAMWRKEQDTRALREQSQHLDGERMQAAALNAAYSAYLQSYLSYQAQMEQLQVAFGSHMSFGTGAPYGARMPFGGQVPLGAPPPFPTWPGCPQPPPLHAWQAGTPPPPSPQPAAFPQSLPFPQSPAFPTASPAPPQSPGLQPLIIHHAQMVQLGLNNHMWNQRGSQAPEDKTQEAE

[2] = target: T1, Tripartite-motif protein-56 (TRIM56), endogenous (human (endogenous in HeLa)); experiment: co-IP; endogenous proteins in HeLa cells, 0.5-2 h after poly-I:C stimulation; lysates precipitated with anti-TRIM56 pAb, blotted with anti-TRIF

With “TIR-domain-containing adapter-inducing IFN-β (TRIF), endogenous (from UniProt Q8IUC6 1-712)” the binding [1] was “no binding” and the binding [2] was “binds”.

Reference: article PMC11067339
